Laboratory results taken from paper PMC11477109, “NgAP2a Targets KCS Gene to Promote Lipid Accumulation in Nannochloropsis gaditana”.
Negatives hold for the conditions tested. At least one verdict was read from the data and is not stated in words by the source. Where a protein sequence is shown, tags need not be part of it.

Target: T1, PET28-NgAP2a (Nannochloropsis gaditana) (UniProt W7TGT1)
T1 sequence (looked up, limits assumed): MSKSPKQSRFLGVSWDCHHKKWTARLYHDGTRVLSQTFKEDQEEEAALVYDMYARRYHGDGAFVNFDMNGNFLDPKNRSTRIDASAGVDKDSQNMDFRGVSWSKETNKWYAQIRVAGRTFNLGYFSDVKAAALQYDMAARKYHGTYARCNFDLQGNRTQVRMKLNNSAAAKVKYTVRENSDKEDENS
Experiment: EMSA
Conditions: Beyotime Chemiluminescent EMSA Kit GS009 per manual; pH and temperature not stated; recombinant protein; label: 3' biotin

Binding result, no binding:
ACGCCAGGACGGGAGACTTCAACAGGGGGT (double strand) [M6 probe (EMSA6)]
AGGTTGCAACCAGCCGAAACCCTGATGCTG (double strand) [M4 probe (EMSA4)]
GTAGAGGAGTTCGTCAACCCTAAGTTCAAGGA (double strand) [M2 probe (EMSA2)]
GTTATGCTCCAAAAACCTATGGGGATTGTATTG (double strand) [M8 probe (EMSA8)]
